Test results from patent publication US20230049529A1.
Results are given in words; binding and its absence hold for the method and conditions named. Some results given as binding are weak or reduced against the parent protein; the word gives no strength.

Protein sequences, listed by entry. Tags and fused reporters are not part of them. Residues count along the entry.
UniProt Q02223, residues 1-54: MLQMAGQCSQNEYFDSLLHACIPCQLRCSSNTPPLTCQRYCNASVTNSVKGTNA

Molecular target: biotinylated Fc-BCMA (UniProt Q02223)
Test: ELISA of phage display selected clones on Fc-BCMA

B1: VOO1 Fab (Fab, V domains shown)
VH: QEQLEESGGRLVTPGTPLTLTCTVSGFSLSNYHMSWVRQAPGKGLEWIGFITSGGSTYYASWAKGRFTISRTSTTVDLKITSPTTEDTATYFCARWNGYGGNMWGPGTLVTVSS
VL: DVVMTQTPSSVPAAVGGTVTINCQASQSIDSNLAWFQQKPGQPPNLLIYDASTLASGVPSRFKGSAGKQFTLTISGVQREDAATYYCLGSYSRTEKAFGAGTKVEIK
Question: B1 was tested. Which binding did it give?
Answer: binds
